# Assay results as given in PubChem BioAssay AID220 (DTP/NCI, 2004).
# The list shows only some results of the screen, not a fair sample: it gathers tests that were run many times, whatever their T/C, doses with no T/C, and many T/C values between a quarter and a half above the control. Further doses and runs are listed elsewhere. T/C: endpoint of the treated group in % of that of the vehicle group. Schedules are NCI's codes, read here as Q, the interval in days (D) or hours (H), X, the number of doses. Some T/C values carry the count of animals alive at the toxicity check (mostly the fifth day); without a count, all were alive then. Some T/C values are negative: the treated tumours shrank. Some doses have a count of surviving animals in place of a T/C: the source holds a T/C of zero for them, seemingly a mark for toxic or unscored doses. Survivors were counted at the toxicity check, usually on the fifth day, unless a day is given; later deaths do not show. Some doses were run more than once; the results are listed from low to high.
# Tested on: CD8F1 mice, subcutaneous mammary adenocarcinoma, T/C%
# Test: NCI In Vivo Anticancer Drug Screen. Data for tumor model Mammary Adenocarcinoma CD8F1 (subcutaneous) in CD8F1
# Details: higher T/C = larger tumour
# How it was run: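 Antitumor activity is assessed in transplantable-tumor mice by comparing the treated group with a vehicle-treated control group. Survival or tumor size serves as the measure, reported as T divided by C.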
# [1] = T/C endpoint: median tumor weight change, dose: 1000.0 mg/kg/injection, schedule: Q01DX001 (ip), vehicle: saline with Tween-80
# [2] = T/C endpoint: median tumor weight change, dose: 2000.0 mg/kg/injection, schedule: Q01DX001 (ip), vehicle: saline with Tween-80
# [3] = T/C endpoint: median tumor weight change, dose: 500.0 mg/kg/injection, schedule: Q01DX001 (ip), vehicle: saline with Tween-80
# [4] = T/C endpoint: median tumor weight change, dose: 500.0 mg/kg/injection, schedule: Q01DX001 (ip), vehicle: Klucel (hydroxypropylcellulose) (HPC)
smiles,measurement,setting,value
CCC1=C[C@H]2CN(CCc3c([nH]c4ccccc34)[C@@](C(=O)OC)(c3cc4c(cc3OC)N(C)[C@H]3[C@@](O)(C(=O)OC)[C@H](OC(C)=O)[C@]5(CC)C=CCN6CC[C@]43[C@@H]65)C2)C1,T/C,"T/C endpoint: median tumor weight change, dose: 1.0 mg/kg/injection, schedule: Q01DX001 (ip), vehicle: water, evaluated on day 35",143 % of control [8 of 10 alive on day 35]
same,T/C,"T/C endpoint: median tumor weight change, dose: 2.0 mg/kg/injection, schedule: Q01DX001 (ip), vehicle: water, evaluated on day 35",146 % of control
same,T/C,"T/C endpoint: median tumor weight change, dose: 2.5 mg/kg/injection, schedule: Q01DX001 (ip), vehicle: water, evaluated on day 32",40 % of control
same,T/C,"T/C endpoint: median tumor weight change, dose: 2.5 mg/kg/injection, schedule: Q01DX001 (ip), vehicle: water, evaluated on day 33",66 % of control
same,T/C,"T/C endpoint: median tumor weight change, dose: 2.5 mg/kg/injection, schedule: Q01DX001 (ip), vehicle: water, evaluated on day 35",91 % of control
same,T/C,"T/C endpoint: median tumor weight change, dose: 2.5 mg/kg/injection, schedule: Q01DX001 (ip), vehicle: water, evaluated on day 64",75 % of control
same,T/C,"T/C endpoint: median tumor weight change, dose: 5.0 mg/kg/injection, schedule: Q01DX001 (ip), vehicle: water, evaluated on day 32",63 % of control [9 of 10 alive on day 32]
same,T/C,"T/C endpoint: median tumor weight change, dose: 5.0 mg/kg/injection, schedule: Q01DX001 (ip), vehicle: water, evaluated on day 33",87 % of control
same,T/C,"T/C endpoint: median tumor weight change, dose: 5.0 mg/kg/injection, schedule: Q01DX001 (ip), vehicle: water, evaluated on day 35",86 % of control
same,T/C,"T/C endpoint: median tumor weight change, dose: 5.0 mg/kg/injection, schedule: Q01DX001 (ip), vehicle: water, evaluated on day 64",14 % of control
same,T/C,"T/C endpoint: median tumor weight change, dose: 10.0 mg/kg/injection, schedule: Q01DX001 (ip), vehicle: water, evaluated on day 32",17 % of control
same,T/C,"T/C endpoint: median tumor weight change, dose: 10.0 mg/kg/injection, schedule: Q01DX001 (ip), vehicle: water, evaluated on day 33",54 % of control
same,T/C,"T/C endpoint: median tumor weight change, dose: 10.0 mg/kg/injection, schedule: Q01DX001 (ip), vehicle: water, evaluated on day 35",9 % of control [9 of 10 alive on day 35]
same,T/C,"T/C endpoint: median tumor weight change, dose: 10.0 mg/kg/injection, schedule: Q01DX001 (ip), vehicle: water, evaluated on day 64",97 % of control
same,survivor count,"T/C endpoint: median tumor weight change, dose: 16.0 mg/kg/injection, schedule: Q01DX001 (ip), vehicle: water",2 of 10 on day 35
same,T/C,"T/C endpoint: median tumor weight change, dose: 20.0 mg/kg/injection, schedule: Q01DX001 (ip), vehicle: water, evaluated on day 33",-3 % of control [7 of 10 alive on day 33]
same,survivor count,"T/C endpoint: median tumor weight change, dose: 20.0 mg/kg/injection, schedule: Q01DX001 (ip), vehicle: water","3 of 10 on day 35, 5 of 10 on day 32, 6 of 10 on day 64"
same,survivor count,"T/C endpoint: median tumor weight change, dose: 40.0 mg/kg/injection, schedule: Q01DX001 (ip), vehicle: water",0 of 10 on day 32 and 0 of 10 on day 33
CC1=CC(=NN=c2cc(C)n([O-])c(C)c2)C=C(C)[N+]1=O,T/C,"T/C endpoint: median tumor weight change, dose: 250.0 mg/kg/injection, schedule: Q01DX001 (ip), vehicle: saline with Tween-80, evaluated on day 27",132 % of control
same,survivor count,[1],1 of 10 on day 27
same,survivor count,"T/C endpoint: median tumor weight change, dose: 1600.0 mg/kg/injection, schedule: Q01DX001 (ip), vehicle: suspension in saline",1 of 10 on day 42
same,survivor count,[2],1 of 10 on day 27
same,survivor count,"T/C endpoint: median tumor weight change, dose: 2000.0 mg/kg/injection, schedule: Q01DX001 (ip), vehicle: saline",0 of 10 on day 25
Cn1c2nc(=O)n(-c3ccccc3)c(=O)c-2nc2c1CCCC2,survivor count,"T/C endpoint: median tumor weight (est.), dose: 200.0 mg/kg/injection, schedule: Q07DX005 (ip), vehicle: saline with Tween-80",4 of 10 on day 30
same,survivor count,"T/C endpoint: median tumor weight (est.), dose: 400.0 mg/kg/injection, schedule: Q07DX005 (ip), vehicle: saline with Tween-80",0 of 10 on day 30
COc1cc([C@@H]2c3cc4c(cc3[C@@H](OC3OC5CO[C@@H](c6cccs6)OC5C(O)C3O)[C@H]3COC(=O)[C@H]23)OCO4)cc(OC)c1O (stereo partly specified),T/C,"T/C endpoint: median tumor weight (est.), dose: 4.0 mg/kg/injection, schedule: Q07DX005 (ip), vehicle: saline, evaluated on day 30",133 % of control
same,survivor count,"T/C endpoint: median tumor weight (est.), dose: 16.0 mg/kg/injection, schedule: Q07DX005 (ip), vehicle: saline",1 of 10
Clc1ccc2nnnn2n1,survivor count,[3],6 of 10 on day 36
same,survivor count,[1],1 of 10 on day 36
same,survivor count,[2],0 of 10 on day 36
same,survivor count,"T/C endpoint: median tumor weight change, dose: 4000.0 mg/kg/injection, schedule: Q01DX001 (ip), vehicle: saline with Tween-80",0 of 10 on day 36
CC1=C(/C=C/C(C)=C/C=C/C(C)=C/C(=O)O)C(C)(C)CCC1,survivor count,"T/C endpoint: median tumor weight (est.), dose: 256.0 mg/kg/injection, schedule: Q07DX005 (ip), vehicle: saline with Tween-80",6 of 10 on day 30
CC[n+]1ccc(Nc2ccc(NC(=O)c3ccc(C(=O)Nc4ccc(Nc5cc[n+](CC)c(N)n5)cc4)cc3)cc2)nc1N,T/C,"T/C endpoint: median tumor weight (est.), dose: 12.5 mg/kg/injection, schedule: Q07DX005 (ip), vehicle: suspension in saline, evaluated on day 30",130 % of control
O=[N+]([O-])c1ccc(-n2[nH]nnc2=S)cc1,T/C,"T/C endpoint: median tumor weight change, dose: 250.0 mg/kg/injection, schedule: Q01DX001 (ip), vehicle: saline with Tween-80, evaluated on day 29",136 % of control
same,survivor count,[3],1 of 10 on day 29 and 4 of 10 on day 32
same,survivor count,[1],0 of 10 on day 29 and 0 of 10 on day 32
same,survivor count,[2],0 of 10 on day 29 and 0 of 10 on day 32
CCCCCC#CC1OC12CCCCC2 (stereo unspecified),survivor count,"T/C endpoint: median tumor weight change, dose: 1600.0 mg/kg/injection, schedule: Q01DX001 (ip), vehicle: saline with Tween-80",0 of 10 on day 38
COC1/C=C/O[C@@]2(C)Oc3c(C)c(O)c4c(O)c(cc(O)c4c3C2=O)NC(=O)/C(C)=C\C=C\[C@H](C)C(O)[C@@H](C)[C@@H](O)[C@@H](C)[C@H](OC(C)=O)[C@@H]1C (stereo partly specified),T/C,"T/C endpoint: median tumor weight change, dose: 62.0 mg/kg/injection, schedule: Q01DX001 (ip), vehicle: saline with Tween-80, evaluated on day 25",142 % of control
same,T/C,"T/C endpoint: median tumor weight change, dose: 125.0 mg/kg/injection, schedule: Q01DX001 (ip), vehicle: saline with Tween-80, evaluated on day 25",138 % of control
same,T/C,"T/C endpoint: median tumor weight change, dose: 250.0 mg/kg/injection, schedule: Q01DX001 (ip), vehicle: saline with Tween-80, evaluated on day 25",146 % of control
same,T/C,"T/C endpoint: median tumor weight change, dose: 500.0 mg/kg/injection, schedule: Q01DX001 (ip), vehicle: saline with Tween-80, evaluated on day 25",144 % of control
same,survivor count,[1],1 of 10 on day 29 and 3 of 10 on day 25
CN=C(NC#N)NCCSCc1nc[nH]c1C,survivor count,[4],4 of 10 on day 32
same,survivor count,"T/C endpoint: median tumor weight change, dose: 1000.0 mg/kg/injection, schedule: Q01DX001 (ip), vehicle: Klucel (hydroxypropylcellulose) (HPC)",0 of 10 on day 32
same,survivor count,"T/C endpoint: median tumor weight change, dose: 2000.0 mg/kg/injection, schedule: Q01DX001 (ip), vehicle: Klucel (hydroxypropylcellulose) (HPC)",0 of 10 on day 32
O=C(Nc1cccc(Cl)c1)ON1C(=O)C2C(C1=O)C1(Cl)C(Cl)C(Cl)C2(Cl)C1(Cl)Cl (stereo unspecified),survivor count,[3],6 of 10 on day 32
same,survivor count,[1],0 of 10 on day 32
CCC1CN2C(=N1)c1ccccc1-c1cc(Cl)ccc12 (stereo unspecified),T/C,"T/C endpoint: median tumor weight (est.), dose: 6.25 mg/kg/injection, schedule: Q07DX005 (ip), vehicle: suspension in saline, evaluated on day 32",135 % of control
same,survivor count,"T/C endpoint: median tumor weight (est.), dose: 100.0 mg/kg/injection, schedule: Q07DX005 (ip), vehicle: suspension in saline",1 of 10 on day 32
COc1ccc(Cl)[n+]([O-])n1,survivor count,"T/C endpoint: median tumor weight change, dose: 125.0 mg/kg/injection, schedule: Q01DX001 (ip), vehicle: Klucel (hydroxypropylcellulose) (HPC)",4 of 10 on day 33
same,survivor count,"T/C endpoint: median tumor weight change, dose: 250.0 mg/kg/injection, schedule: Q01DX001 (ip), vehicle: Klucel (hydroxypropylcellulose) (HPC)",0 of 10 on day 33 and 0 of 10 on day 34
same,survivor count,[4],0 of 10 on day 33 and 0 of 10 on day 34
[Cl][Sn]([c]1ccccc1)[c]1ccccc1,survivor count,"T/C endpoint: median tumor weight change, dose: 50.0 mg/kg/injection, schedule: Q01DX001 (ip), vehicle: water",6 of 10 on day 29
same,survivor count,"T/C endpoint: median tumor weight change, dose: 100.0 mg/kg/injection, schedule: Q01DX001 (ip), vehicle: water",1 of 10 on day 29
same,survivor count,"T/C endpoint: median tumor weight change, dose: 200.0 mg/kg/injection, schedule: Q01DX001 (ip), vehicle: water",0 of 10 on day 29
same,survivor count,"T/C endpoint: median tumor weight change, dose: 400.0 mg/kg/injection, schedule: Q01DX001 (ip), vehicle: water",0 of 10 on day 29
same,survivor count,"T/C endpoint: median tumor weight change, dose: 800.0 mg/kg/injection, schedule: Q01DX001 (ip), vehicle: water",0 of 10 on day 29
O=[n+]1c2ccccc2n([O-])c2ccccc21.[Cl][Ni][Cl],survivor count,"T/C endpoint: median tumor weight change, dose: 62.5 mg/kg/injection, schedule: Q01DX001 (ip), vehicle: saline with Tween-80",3 of 10 on day 36
same,survivor count,"T/C endpoint: median tumor weight change, dose: 125.0 mg/kg/injection, schedule: Q01DX001 (ip), vehicle: saline with Tween-80",0 of 10 on day 36
same,survivor count,"T/C endpoint: median tumor weight change, dose: 250.0 mg/kg/injection, schedule: Q01DX001 (ip), vehicle: saline with Tween-80",0 of 10 on day 36
